The source of these data is patent publication US20190015494A1.

For test [1], the target named is HLA B*0702 class I MHC molecule (human). Briefly: LC-MS/MS of eluted class I MHC peptides; Table 7: presented by HLA B*0702 on ALL, CLL, S.
Test [2] shares this target. Briefly: LC-MS/MS of peptides eluted from immunoaffinity-purified class I MHC; Table 4: associated with HLA B*0702.
The target is the same in test [3]. Briefly: LC-MS/MS of eluted class I MHC peptides; Table 7: presented by HLA B*0702 on CLL.
Test [4] has the same target. Briefly: LC-MS/MS of peptides eluted from immunoaffinity-purified class I MHC; Table 5: associated with HLA B*0702.
For test [5] the target is unchanged. Briefly: LC-MS/MS of eluted class I MHC peptides; Table 7: presented by HLA B*0702 on ALL.
Test [6] shares this target. Briefly: LC-MS/MS of eluted class I MHC peptides of HLA B*07:02 leukemia samples.
Test [7] has the same target. Briefly: LC-MS/MS of eluted class I MHC peptides; Table 7: presented by HLA B*0702 on AML, ALL, CLL, GM, JY, S, To.
Test [8] shares this target. Briefly: LC-MS/MS of eluted class I MHC peptides; Table 7: presented by HLA B*0702 on ALL, CLL.
For test [9] the target is unchanged. Briefly: LC-MS/MS of peptides eluted from immunoaffinity-purified class I MHC; note ix of Table 4 (associated with HLA B*0702).
The target is the same in test [10]. Briefly: LC-MS/MS of eluted class I MHC peptides; Table 7: presented by HLA B*0702 on AML, ALL, CLL.
Test [11] has the same target. Briefly: LC-MS/MS of peptides eluted from immunoaffinity-purified class I MHC; note v of Table 4 (associated with HLA B*0702).

No constants are given. Whether binding was seen depends on the method and setting. In cells and extracts the contact can be indirect. Some entries that bind do so weakly or less than the wild type.

As to RPVTASITTM (O-GlcNAc on T4) [RPVtASITTM (SEQ ID NO: 33)], the binding result in [1] and in test [2] was “binds” in each case. As to APRGNVTSL (N-linked hexose-GlcNAc on N5) [APRGnVTSL (hexose-GlcNAc) (SEQ ID NO: 3)], the binding entry in test [3] and in test [4] was “binds” each time. IPVSKPLSL (hexose-GlcNAc on S4) [IPVsKPLSL (hexose-GlcNAc) (SEQ ID NO: 18)]: the binding result in test [4] is listed as “binds”. On to RPPQSSSVSL (O-linked hexose-GlcNAc on S5) [RPPQsSSVSL (hexose-GlcNAc) (SEQ ID NO: 30)], for which the binding result in test [5] and in test [4] was “binds” throughout. KPPTSQSSVL (hexose-GlcNAc on S5 as printed in the sequence; note vi says hexose-GlcNAc (T4)) [KPPTsQSSVL (hexose-GlcNAc) (SEQ ID NO: 20)]: the binding entry in test [4] is given as “binds”.

Regarding IPVSSHNSL (hexose-GlcNAc on S4) [IPVsSHNSL (hexose-GlcNAc) (SEQ ID NO: 19)], the binding entry in [4] is “binds”.

With IPVSSHNSL (O-GlcNAc on S4) [IPVsSHNSL (SEQ ID NO: 19)], the binding entry in [6], in test [2] and in test [7] was “binds” each time. Consider VPASSTSTL (O-GlcNAc on S4) [VPAsSTSTL (SEQ ID NO: 39)], for which the binding entry in [8] and in test [2] was “binds” throughout. Regarding APVSSKSSL (O-GlcNAc on S4) [APVsSKSSL (SEQ ID NO: 8)], the binding entry in test [8] and in [2] was “binds” each time. Take PPSTSAAAL (O-linked hexose-GlcNAc on S5) [PPSTsAAAL (hexose-GlcNAc) (SEQ ID NO: 28)]: the binding result in [4] is listed as “binds”. TPASSSSAL (O-GlcNAc on S4) [TPAsSSSAL (SEQ ID NO: 35)]: the binding entry in test [8] and in [2] was “binds” in each case. Consider TPASSRAQTL (O-GlcNAc on S5) [TPASsRAQTL (SEQ ID NO: 34)], for which the binding entry in test [3] and in [2] was “binds” in each case. For MPVRPTTNTF (asymmetric di-methyl on R4; hexose-GlcNAc on T7) [MPVRPTtNTF, asymmetric di-methyl (R4) + hexose-GlcNAc (T7) form (SEQ ID NO: 25)], in [9], the binding result is reported as “binds”. RPPVTKASSF (O-GlcNAc on T5) [RPPVtKASSF (SEQ ID NO: 32)]: the binding result in test [8] and in test [2] was “binds” each time. IPVSKPLSL (O-GlcNAc on S4) [IPVsKPLSL (SEQ ID NO: 18)]: the binding result in test [10] and in [2] was “binds” each time. In the case of KPPVSFFSL (O-linked hexose-GlcNAc on S5) [KPPVsFFSL (hexose-GlcNAc) (SEQ ID NO: 21)], the binding entry in test [5] and in [4] was “binds” throughout. On to APPSTSAAAL (hexose-GlcNAc on S4 and on T5) [APPstSAAAL (2 hexose-GlcNAc) (SEQ ID NO: 2)], for which the binding result in test [4] is on record as “binds”. On the same count and under the same terms, the result for PPSTSAAAL (O-linked hexose-GlcNAc on T4) [PPStSAAAL (hexose-GlcNAc) (SEQ ID NO: 28)] reads “binds”. Regarding IPVSSHNSL (acetyl-GlcNAc on S4) [IPVsSHNSL, acetyl-GlcNAc (S4) form (SEQ ID NO: 19)], the binding entry in test [11] is “binds”. Regarding APRTNGVAM (O-GlcNAc on T4) [APRtNGVAM (SEQ ID NO: 4)], the binding result in test [8] and in test [2] was “binds” each time.
